These are yes or no findings as the source states them, for the method shown. In cells and extracts the contact can be indirect. Some results given as binding are weak or reduced against the parent protein; the word gives no strength.
Biological target: α5 (S16A)-TBHA (UniProt P28066)
Test: pull-down; High Capacity Streptavidin Agarose captures the biotinylated TBHA-tagged bait from lysates of stably expressing 293T cells (TBSN buffer: 50 mM Tris pH 7.5, 125 mM NaCl, 0.5% NP-40, 1 mM ATP, 5 mM MgCl2), 4 °C; Western blot; cells with or without nocodazole (100 ng/mL, 16 h)

By UniProt entry, the sequences of proteins in these tests, tags left out. Where a name states a change or a piece, a line headed by the entry shows the natural chain unless it says otherwise.
UniProt P28066, whole entry: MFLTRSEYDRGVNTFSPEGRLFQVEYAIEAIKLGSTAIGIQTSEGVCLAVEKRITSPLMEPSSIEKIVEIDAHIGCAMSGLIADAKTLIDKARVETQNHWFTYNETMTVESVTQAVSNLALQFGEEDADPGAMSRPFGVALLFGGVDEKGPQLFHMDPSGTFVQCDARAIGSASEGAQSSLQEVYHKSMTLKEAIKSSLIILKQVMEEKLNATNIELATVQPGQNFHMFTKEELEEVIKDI

For “HA-PLK1 (from UniProt P53350 1-603) (enzyme)”, the binding was “binds”.

“endogenous α5 (from UniProt P28066-1 1-241)” was tested, and the binding was “binds”.

Source: article PMC8620773
